The text below walks through data of EP2908837B1 (priority 2012, dated 2014).

This data set in a line: general procedure: Fmoc solid-phase peptide synthesis; Rink Amide AM, Wang, Barlos (2-chlorotrityl chloride) or Sieber Amide on polystyrene-1% DVB; HBTU or HATU; PyBop/DIEA for conjugation in solution. The settings on record: conjugation step.

Cya-PEG2-K(P)-K(P)-NH2 returned a conjugation yield of 24%.
